From article PMC7298293
Results are given in words; binding and its absence hold for the method and conditions named. Some binding calls cover weakened binding; strength is not graded here. For part of these data: Where a sequence is shown, tags or fusion partners need not be part of it.

Chains of the proteins cited; added tags and fusions are not shown. Lines headed by an entry give the natural chain unless they say otherwise; changes in a name come on top.
UniProt P14635: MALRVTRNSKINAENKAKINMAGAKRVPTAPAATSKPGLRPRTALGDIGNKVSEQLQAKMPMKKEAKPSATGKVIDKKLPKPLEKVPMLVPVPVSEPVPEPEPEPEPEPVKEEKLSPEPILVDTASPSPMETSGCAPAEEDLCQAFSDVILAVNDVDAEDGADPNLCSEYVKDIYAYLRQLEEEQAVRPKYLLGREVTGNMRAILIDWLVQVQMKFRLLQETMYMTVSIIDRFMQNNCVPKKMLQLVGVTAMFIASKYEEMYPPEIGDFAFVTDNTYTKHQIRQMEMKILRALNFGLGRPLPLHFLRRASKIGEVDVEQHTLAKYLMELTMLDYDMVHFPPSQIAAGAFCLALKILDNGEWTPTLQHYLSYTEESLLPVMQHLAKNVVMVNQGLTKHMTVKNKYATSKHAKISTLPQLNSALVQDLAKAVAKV
UniProt P06493: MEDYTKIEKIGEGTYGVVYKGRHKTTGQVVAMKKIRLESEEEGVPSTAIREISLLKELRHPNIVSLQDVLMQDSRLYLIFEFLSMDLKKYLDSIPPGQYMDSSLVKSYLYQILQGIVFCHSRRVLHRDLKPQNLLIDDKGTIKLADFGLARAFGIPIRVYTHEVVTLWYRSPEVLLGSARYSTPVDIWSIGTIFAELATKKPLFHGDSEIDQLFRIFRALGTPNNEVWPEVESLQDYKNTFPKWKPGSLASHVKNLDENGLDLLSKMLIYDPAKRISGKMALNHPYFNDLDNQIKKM

How the values were obtained:
[1] = molecular target: T1, LacI-MAD1-FL (full length: aa 1–718) (human) (UniProt Q9Y6D9); assay: LacO/LacI tethering, co-recruitment seen by microscopy; LacI-MAD1 recruited to a LacO array on chromosome 1 in U2OS cells; Cyclin B1 seen by immunofluorescence (Fig 1F) or live imaging of Cyclin B1-mCherry (Fig 1G)
T1 sequence: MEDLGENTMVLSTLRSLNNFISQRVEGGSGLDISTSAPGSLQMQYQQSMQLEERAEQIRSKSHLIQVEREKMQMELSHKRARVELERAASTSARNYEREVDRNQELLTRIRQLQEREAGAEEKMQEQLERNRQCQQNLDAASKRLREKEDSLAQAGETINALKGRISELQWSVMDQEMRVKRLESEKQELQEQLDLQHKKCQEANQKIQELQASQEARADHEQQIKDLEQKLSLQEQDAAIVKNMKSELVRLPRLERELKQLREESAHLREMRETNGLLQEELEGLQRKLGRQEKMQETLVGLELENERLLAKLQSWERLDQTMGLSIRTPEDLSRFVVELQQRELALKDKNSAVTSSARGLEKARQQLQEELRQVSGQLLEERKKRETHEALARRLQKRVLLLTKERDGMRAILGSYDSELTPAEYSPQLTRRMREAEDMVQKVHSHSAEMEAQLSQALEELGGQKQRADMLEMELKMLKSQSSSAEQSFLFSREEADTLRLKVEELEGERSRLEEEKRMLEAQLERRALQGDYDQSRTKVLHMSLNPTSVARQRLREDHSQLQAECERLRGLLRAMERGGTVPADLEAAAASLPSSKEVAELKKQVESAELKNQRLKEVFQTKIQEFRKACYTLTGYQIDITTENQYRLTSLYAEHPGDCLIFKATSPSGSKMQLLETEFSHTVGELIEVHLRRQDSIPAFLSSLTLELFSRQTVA

[2] = molecular target: MBP-MAD1:MAD2 complex (full-length MAD1) (UniProt Q9Y6D9); assay: SEC; analytical SEC; proteins mixed at 1:1 molar ratio, typically 5 μM, 30 min on ice; 4°C; 50 mM Hepes pH 8.0, 150 mM NaCl, 2 mM TCEP; fractions on SDS-PAGE, Coomassie; both purified
[3] = molecular target: T2, MBP-MAD1^1–92-SNAP (human) (UniProt Q9Y6D9); assay: as above
T2 sequence: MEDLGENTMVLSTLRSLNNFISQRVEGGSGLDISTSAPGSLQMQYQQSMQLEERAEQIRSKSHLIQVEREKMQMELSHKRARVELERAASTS

[4] = molecular target: T3, MBP-MAD1^41–62 (human) (UniProt Q9Y6D9); assay: as above
T3 sequence: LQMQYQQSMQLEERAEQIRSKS

[5] = molecular target: MBP-MAD1^Δ93:MAD2 complex (UniProt Q9Y6D9); assay: as above
[6] = molecular target: MBP-MAD1:MAD2 complex (full-length MAD1) (UniProt Q9Y6D9); assay: low-angle metal shadowing electron microscopy; SEC fraction holding the complex, sprayed on mica, rotary-shadowed with platinum/carbon; both purified

Row | binding [1] | binding [2] | binding [3] | Substance | also measured
1 | – | binds | binds | Cyclin B1 (from UniProt P14635 1-433) | –
2 | binds | – | – | Cyclin B1-mCherry (from UniProt P14635 1-433) | –
3 | – | binds | binds | Cyclin B1:CDK1 complex (from UniProt P14635 1-433; P06493 1-297) | binding [4]: binds; binding [5]: no binding (tested: 5 μM)

Further lines, the substance ahead of its results:

Row | Substance | binding [1] | binding [2] | binding [3] | also measured
4 | Cyclin B1 (endogenous, U2OS cells) (from UniProt P14635 1-433) | binds | – | – | –
5 | GST-CDK1:Cyclin B1 complex (from UniProt P06493 1-297; P14635 1-433) | – | – | – | binding [6]: binds
